The results in this text go back to paper PMC10313376.

Amino acid sequences for entries named in this document (tags omitted). Residues count along the entry.
UniProt O88572, residues 20-1613: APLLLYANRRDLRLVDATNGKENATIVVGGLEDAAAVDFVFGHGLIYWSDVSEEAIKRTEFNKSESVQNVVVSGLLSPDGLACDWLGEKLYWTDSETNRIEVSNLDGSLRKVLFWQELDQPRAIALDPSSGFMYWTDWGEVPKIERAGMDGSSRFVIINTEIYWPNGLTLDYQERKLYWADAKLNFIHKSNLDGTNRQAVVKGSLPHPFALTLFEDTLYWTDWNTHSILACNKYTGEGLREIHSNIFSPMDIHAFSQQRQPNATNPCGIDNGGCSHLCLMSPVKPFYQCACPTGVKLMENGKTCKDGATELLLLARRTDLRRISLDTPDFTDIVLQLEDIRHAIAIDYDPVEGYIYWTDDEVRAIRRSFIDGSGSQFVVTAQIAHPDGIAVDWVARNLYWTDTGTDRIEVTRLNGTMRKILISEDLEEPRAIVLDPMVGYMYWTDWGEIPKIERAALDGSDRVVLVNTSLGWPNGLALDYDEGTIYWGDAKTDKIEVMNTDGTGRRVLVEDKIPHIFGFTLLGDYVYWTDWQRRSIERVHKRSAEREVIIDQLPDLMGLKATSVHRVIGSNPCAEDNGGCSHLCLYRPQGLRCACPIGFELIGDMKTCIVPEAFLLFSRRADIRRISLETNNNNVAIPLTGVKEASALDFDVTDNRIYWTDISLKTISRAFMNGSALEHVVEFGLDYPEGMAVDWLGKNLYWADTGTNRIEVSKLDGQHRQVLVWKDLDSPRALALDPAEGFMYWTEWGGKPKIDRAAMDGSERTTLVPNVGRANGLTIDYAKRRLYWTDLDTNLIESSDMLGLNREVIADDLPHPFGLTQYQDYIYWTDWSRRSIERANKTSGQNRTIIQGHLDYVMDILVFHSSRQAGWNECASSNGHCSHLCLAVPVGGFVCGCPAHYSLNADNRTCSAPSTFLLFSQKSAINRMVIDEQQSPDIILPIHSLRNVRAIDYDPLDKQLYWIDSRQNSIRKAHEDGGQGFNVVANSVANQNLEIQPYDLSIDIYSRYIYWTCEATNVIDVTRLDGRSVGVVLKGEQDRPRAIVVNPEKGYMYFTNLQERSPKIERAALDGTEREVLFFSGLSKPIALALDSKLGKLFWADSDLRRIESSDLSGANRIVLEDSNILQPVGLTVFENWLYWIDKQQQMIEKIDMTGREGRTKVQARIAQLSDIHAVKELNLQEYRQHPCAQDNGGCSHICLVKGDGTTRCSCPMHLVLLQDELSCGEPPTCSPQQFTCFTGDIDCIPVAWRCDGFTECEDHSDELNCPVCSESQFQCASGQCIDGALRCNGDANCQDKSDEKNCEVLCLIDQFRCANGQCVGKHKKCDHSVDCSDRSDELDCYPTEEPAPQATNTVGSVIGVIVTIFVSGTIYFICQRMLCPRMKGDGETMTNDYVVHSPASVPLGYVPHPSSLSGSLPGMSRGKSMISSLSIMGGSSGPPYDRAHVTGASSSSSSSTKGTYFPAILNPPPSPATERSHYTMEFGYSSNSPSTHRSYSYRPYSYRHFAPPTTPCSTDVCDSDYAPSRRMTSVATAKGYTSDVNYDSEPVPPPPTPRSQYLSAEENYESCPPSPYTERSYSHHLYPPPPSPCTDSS

No constants are given. Whether binding was seen depends on the method and setting. Binding seen in cells or lysates may run through a third protein. A result given as binding can be weak or reduced; the word gives no strength.

This test concerns the target FLAG-tagged mouse LRP6 (mouse) (UniProt O88572). Briefly: co-IP; FLAG IP (ANTI-FLAG M2 Affinity Gel, 2 mg total protein, elution with FLAG peptide) from 293T cells cotransfected with FLAG-mLRP6 and mSELENOP constructs, blot for LRP6 and SELENOP or V5.
Regarding “V5-tagged mouse SELENOP Δ258-267 (from UniProt P70274)”, the binding result is reported as “binds”.

Turning to “V5-tagged mouse SELENOP Δ268-277 (from UniProt P70274)”, the binding entry is listed as “binds”.

Take “V5-tagged mouse SELENOP Δ278-287 (from UniProt P70274)”: the binding result is on record as “binds”.

With “V5-tagged mouse SELENOP Δ288-299 (from UniProt P70274)”, the binding result is “binds”.
